{
  "source": "patent US20140031324A1",
  "about": "“COMPOUND COMPOSITION FOR INHALATION USED FOR TREATING ASTHMA” (Intech Biopharm Ltd., priority 2010, published 2014)",
  "system": "OVA-sensitized mice",
  "experiment": "Albumin (OVA)-induced asthma model in mice; methacholine-induced tracheal contraction (airway hyperresponsiveness, FlexiVent)",
  "type": "in vivo, Balb/c mice",
  "settings": "Budesonide added",
  "note": "At least one structure is not confirmed: it was looked up by name or label, or the drawing left a doubt.",
  "data": [
    {"molecule": "CCCC1O[C@@H]2C[C@H]3[C@@H]4CCC5=CC(=O)C=C[C@]5(C)[C@H]4[C@@H](O)C[C@]3(C)[C@]2(C(=O)CO)O1", "note": "(some centres unmarked) [Budesonide]", "values": [
      {"measurement": "relief of the acute drug tolerance of the beta2-agonist", "setting": "too high dose of the beta2-agonist", "result": "cannot relieve the acute drug tolerance"},
      {"measurement": "relief of the acute drug tolerance of the beta2-agonist", "setting": "under a suitable dose range", "result": "can help to relieve the acute drug tolerance"}
    ]}
  ]
}
